According to PubChem BioAssay AID2685 (National Center for Advancing Translational Sciences (NCATS), 2010):
Screen size: about 320,000 compounds; about 2,100 (0.66%) were called active. The inconclusive results got no clear call from the source; some entries with a clear call stand among them for comparison. Calls come from the whole dose curve; as a rule, active = well fitted inhibition curve with a large enough effect in the signal ratio, with a control signal flat (not every such curve was filed as active); inconclusive = small, poorly fitted or top-dose-only effect, or effect the other way, or a change in a side signal; inactive = flat fitted curve, though single readings scatter; the % refers to the signal ratio. Potencies of inconclusive entries are doubtful fits and often do not repeat.

Assay: qHTS Assay for Lipid Storage Modulators in Drosophila S3 Cells
Conditions: BODIPY lipid droplet fluorescence, 18-24 h, cells fed with added oleic acid; lipid storage change, negative = inhibition: at 46.1 µM (top of the series) unless noted
Procedure, shortened: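 Laser-scanning cytometry quantifies lipid droplet accumulation (500–530 nm total intensity; droplet/cell object ratio) in oleic acid-fed (400 uM added) Drosophila S3 cells treated with a concentration series. 20 uM Triacsin C defined 100% inhibition.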
% is set by controls: 0 for no effect and ±100 for the full control effect; potency is the fitted concentration of half-maximal effect.

Row | SMILES | Potency | lipid storage change, negative = inhibition
1 | Cc1cccc(NC(=S)N2CCCCCC2)c1C | inconclusive: 0.58 µM [activator, single point] | –
2 | N=c1oc2cc(O)ccc2cc1C(=O)Nc1ccc(F)cc1 | – | inconclusive: -16.7%
3 | Cc1ccc(C(OCC(O)CNC(C)c2ccccc2)c2ccccc2)cc1 (stereo not given) | – | inconclusive: -91.6%
4 | Cn1c(-c2cccc(Br)c2)n[nH]c1=O | inconclusive: 23.1 µM [falling, single point] | –
5 | O=c1oc2ccccc2nc1/C=C(\O)c1ccc(Br)cc1 | – | inconclusive: -2.26%
6 | OCC[C@@H]1C[C@H](O)[C@@H](O)[C@@]2(CCc3ccccc3O2)O1 | – | inconclusive: 65.8%
7 | N#Cc1c[nH]n2c(=O)c3c(nc12)CCC3 | inconclusive: 32.6 µM [falling, single point] | –
8 | COc1ccc(N(CC(=O)NCc2ccccc2)C(=O)Cn2nnc(-c3ccccc3F)n2)cc1OC | – | inconclusive: 10.7%
9 | O=C(O)CCCCCNC(=O)c1cccc(Br)c1 | – | inconclusive: -22.5%
10 | O=c1[nH]c2cc3c(cc2cc1CN(Cc1nnnn1C1CCCC1)C1CCCC1)OCCO3 | – | inconclusive: 213%
11 | CCOC(=O)c1cc(-c2csc(COc3ccccc3)n2)on1 | – | inconclusive: -10.2%
12 | COc1ccc2nc(SCC(=O)NCc3ccc(S(N)(=O)=O)cc3)[nH]c2c1 | – | inconclusive: 69.7%
13 | Cc1cccc(NC(=S)N2CCN(c3ccccc3F)CC2)c1C | inconclusive: 1.16 µM [activator, partial curve, poor fit] | –
14 | Cc1[nH]nc(SCC(=O)N2CCC(C)CC2)c1[N+](=O)[O-] | inconclusive: 29.1 µM [rising, single point] | –
15 | Cc1ccc2nsnc2c1S(=O)(=O)NCCc1c(C)[nH]c2ccc(F)cc12 | inconclusive: 7.31 µM [activator, partial curve] | –
16 | O=C(C1CCC(=O)N(C2CCCC2)C1)N1CCN(c2ccc(Cl)cc2)CC1 (stereo not given) | inconclusive: 2.06 µM [falling, single point] | –
17 | Cc1ccc(Cl)cc1NC(=O)CCN1C(=O)C2C3CCC(C3)C2C1=O (stereo not given) | – | inconclusive: -8.13%
18 | COc1cc(/C=N/n2c(COc3ccccc3)n[nH]c2=S)cc(OC)c1OC(C)=O | – | inconclusive: -144%
19 | Cc1ccc(CN2CCN(Cc3ccc(-n4cccn4)cc3C)CC2CCO)cc1 (stereo not given) | – | inconclusive: 15.2%
20 | Cc1c(CN2CCCC(C)C2)c(O)n(CCO)c(=O)c1C#N (stereo not given) | inconclusive: 0.092 µM [falling, full curve, poor fit] | –
21 | CCOCCCNC(=O)C(NC(=O)Cc1c[nH]c2ccccc12)c1ccc(OC)cc1 (stereo not given) | – | inconclusive: -37.3%
22 | COc1cccc(CNC(=O)c2ccc(CS(=O)(=O)Cc3ccccc3C)o2)c1 | – | inconclusive: -21.2%
23 | O=C(Nc1ccccc1)C1CCCN1/C=C/C(=O)C(F)(F)F (stereo not given) | inconclusive: 29.1 µM [activator, single point] | –
24 | CC(=O)c1cccc(CN2CCCC(C(=O)Nc3ccc(-c4ccco4)cc3)C2)c1 (stereo not given) | – | inconclusive: 23%
25 | CC(=O)N1CCN(c2ccc(NCc3ccc(C)s3)cc2)CC1 | – | inconclusive: 32.1%

Row | SMILES | Potency | lipid storage change, negative = inhibition
26 | COC(=O)c1sccc1NC(=O)c1ccc(Br)o1 | – | inconclusive: 10%
27 | C=CCn1c(C)cc(-c2csc(NC)n2)c1C | – | inconclusive: 0.551%
28 | CCC(C)NC(=O)c1n[nH]c(=O)c2ccccc12 (stereo not given) | inconclusive: 29.1 µM [falling, single point] | –
29 | C=CCn1c(=N)c(C(=O)OCC)cc2c(=O)n3cc(C)ccc3nc21 | inconclusive: 16.4 µM [activator, single point] | –
30 | NC(=O)C(Cc1ccccc1)NS(=O)(=O)c1ccc(N2CCCC2=O)cc1 (stereo not given) | inconclusive: 0.82 µM [falling, full curve] | –
31 | COCc1c(C(=O)N2CCN(Cc3ccc(C#N)cc3)CC2)oc2ccccc12 | – | inconclusive: 18.4%
32 | Cc1cc(C)n2c(SCc3c(C)noc3C)nnc2n1 | – | inactive: 3.32%
33 | COC(=O)C(C)(C)ONC(=O)Nc1ccccc1Br | inconclusive: 29.1 µM [activator, single point] | –
34 | COc1ccc(NC(=S)NCCc2ccc(Cl)cc2)c(OC)c1 | – | inconclusive: 44.9%
35 | CCCn1c(N)c(C(=O)CSc2nnc3n2CCCCC3)c(=O)n(C)c1=O | inconclusive: 0.58 µM [activator, partial curve, poor fit] | –
36 | O=C(Nc1ccccc1NC(=O)c1ccccc1F)c1ccccc1F | – | inconclusive: 26.2%
37 | Cc1oc(/N=C/c2cccc([N+](=O)[O-])c2)c(C#N)c1C | active: 16.4 µM | –
38 | CCOC(=O)c1c(CSC(=N)N)n(-c2ccc(Br)cc2)c2cc(Br)c(OC(C)=O)cc12 | inconclusive: 29.1 µM [cytotoxic, single point] | –
39 | Nc1ccc(C(=O)N/N=C\C=C\c2ccc([N+](=O)[O-])cc2)cc1 | – | inconclusive: 3.97%
40 | CC1(C)CC(C(=O)Nc2nccs2)CCO1 (stereo not given) | – | inconclusive: -45.8%
41 | Cc1[nH]c2ccccc2c1C(=O)COC(=O)c1ccc2c(=O)n3c(nc2c1)CCC3 | – | inconclusive: -37.4%
42 | COC(=O)C(C)NS(=O)(=O)c1ccc(NC(C)=O)cc1 (stereo not given) | inconclusive: 0.651 µM [cytotoxic, single point] | –
43 | COc1cc(NC(=O)c2ccc(C)cc2C)ccc1NC(=O)c1cccs1 | – | inconclusive: 73.4%
44 | O=C(N/N=C/c1cccnc1)c1cc(-c2ccccc2)nc2ccccc12 | – | inconclusive: 10.2%
45 | Cc1noc(C)c1COc1ccccc1C(=O)N1CCN(S(=O)(=O)c2ccccc2F)CC1 | – | inconclusive: 29.7%
46 | Cc1ccc2cc(CCNC(=O)c3ccc(C)c([N+](=O)[O-])c3)c(=O)[nH]c2c1 | – | inconclusive: -48.5%
47 | Cc1ccc(NC(=O)CCCN2C(=S)NC(C)(C)CC2C)cc1 (stereo not given) | inconclusive: 29.1 µM [activator, single point] | –
48 | Cc1scc(C(=O)N/N=C/c2ccc(Cl)s2)c1C | inconclusive: 3.26 µM [activator, partial curve] | –
49 | COc1ccc(C(=O)CSc2nnc(NC(=O)C3CC(=O)N(c4ccccc4C)C3)s2)cc1 (stereo not given) | inconclusive: 23.1 µM [activator, partial curve] | –
50 | CCc1ccc(OCc2nnc(SCC(=O)NCc3ccco3)o2)cc1 | – | inconclusive: 64.6%

Row | SMILES | Potency | lipid storage change, negative = inhibition
51 | CC(=O)Nc1cccc(NC(=O)c2c(-c3ccccc3Cl)noc2C)c1 | inconclusive: 11.6 µM [activator, partial curve] | –
52 | CC(C)N(C(=O)COC(=O)[C@@H]1CC(O)CN1S(=O)(=O)c1ccccc1[N+](=O)[O-])C(C)C (stereo not given in full) | inconclusive: 11.6 µM [falling, partial curve] | –
53 | CCc1nnc(NC(=O)C2CCC(CNc3c(N4CCC(C)CC4)c(=O)c3=O)CC2)s1 (stereo not given) | inconclusive: 0.13 µM [falling, full curve] | –
54 | CN1CCCN(S(=O)(=O)c2ccccc2)CC1 | – | inconclusive: 21.7%
55 | CCN(C(=O)COC(=O)c1c(C)nn(-c2ccccc2)c1Cl)c1c(N)n(Cc2ccccc2)c(=O)[nH]c1=O | – | inconclusive
56 | O=C(CNCC1CCCCC1)Nc1ccc(OC(F)(F)F)cc1 | – | inconclusive: -18.5%
57 | O=C(NCc1cccc(Cl)c1)c1ccncc1 | inconclusive: 32.6 µM [falling, single point] | –
58 | CC1(C)Cc2c(sc3nc[nH]c(=O)c23)CO1 | – | inconclusive: -19.7%
59 | CC(=O)Cc1nsc(NC(=O)c2ccccc2)n1 | – | inconclusive: -14.8%
60 | C/C(=N\Nc1ccc(S(=O)(=O)N2CCCCC2)cn1)c1cccc(Br)c1 | – | inconclusive: 15.5%
61 | O=C(CN1C(=O)c2ccccc2C1=O)NCc1ccc(N2CCOCC2)cc1 | – | inconclusive: -19%
62 | Cc1occc1C(=O)N/N=C/C(Br)=C/c1ccccc1 | – | inconclusive: 31.7%
63 | Cc1ccc(-c2cn(-c3ccc(SC(F)F)cc3)c3[n+]2CCC3)cc1 | – | inconclusive: -28.9%
64 | Cc1cccn2c(=O)c3cc(C(=O)NCC4CCCO4)c(=N)n(C4CCCC4)c3nc12 (stereo not given) | – | inconclusive: -100%
65 | O=C(CN1CCN(Cc2ccc(Cl)cc2)CC1)N/N=C/c1ccccc1F | – | inconclusive: 16.3%
66 | COC(=O)CCCC1=CC2=CC(=O)C(C)(OC(=O)C3CCCC3)C(=O)C2=CO1 (stereo not given) | – | inconclusive: -11.5%
67 | CC12CCC(=O)N1C(C(=O)Nc1nc3ccc(Cl)cc3s1)CS2 (stereo not given) | – | inconclusive: 17.8%
68 | Cc1noc(C)c1CSCC(=O)N(C)CC(=O)Nc1ccc(Cl)c(C(F)(F)F)c1 | inconclusive: 20.6 µM [falling, single point] | –
69 | COC(=O)c1cc2occc2n1CC(=O)Nc1ccc(OC)c(OC)c1 | – | inconclusive: -12.2%
70 | O=C(/C=C/c1ccco1)Nc1nc(-c2ccccc2)cs1 | inconclusive: 20.6 µM [falling, single point] | –
71 | CCC(=O)OCC(=O)C1(OC(=O)CC)[C@H](C)C[C@H]2[C@H]3[C@H]([C@@H](O)C[C@@]21C)[C@@]1(C)C=CC(=O)C=C1C[C@H]3Cl (stereo not given in full) | – | inconclusive: 17.8%
72 | CCOc1cc(/C=C(\C#N)C(=O)Nc2cccc(C(=O)O)c2)ccc1OCc1ccc(Br)cc1 | inconclusive: 1.84 µM [activator, partial curve] | –
73 | CN(C)CCCNc1ncnc2scc(-c3ccccc3)c12 | – | inconclusive: -15.1%
74 | C=CCn1c(=O)/c(=C\c2ccsc2)s/c1=C(/C#N)C(=O)NCCN1CCOCC1 | inconclusive: 0.291 µM [activator, full curve, poor fit] | –
75 | CCOC(CCNC(=O)c1cn(-c2cccc(C)n2)cn1)OCC | – | inconclusive: 9.01%

Copied from the list.
lipid storage change, negative = inhibition, `COC(=O)CCCC1=CC2=CC(=O)C(C)(OC(=O)C3CCCC3)C(=O)C2=CO1` (stereo not given) is entered as inconclusive: -11.5%
lipid storage change, negative = inhibition, `COc1ccc(N(CC(=O)NCc2ccccc2)C(=O)Cn2nnc(-c3ccccc3F)n2)cc1OC` is entered as inconclusive: 10.7%
lipid storage change, negative = inhibition, `N=c1oc2cc(O)ccc2cc1C(=O)Nc1ccc(F)cc1` is entered as inconclusive: -16.7%
lipid storage change, negative = inhibition, `CCOCCCNC(=O)C(NC(=O)Cc1c[nH]c2ccccc12)c1ccc(OC)cc1` (stereo not given) is entered as inconclusive: -37.3%
